US20230407098A1, “METHOD FOR EVALUATING CYSTINE UPTAKE ABILITY OF CELL, KIT FOR EVALUATING CYSTINE UPTAKE ABILITY OF CELL, METHOD FOR DETERMINING SELENOCYSTEINE, AND KIT FOR DETERMINING SELENOCYSTEINE” (DOJINDO LABORATORIES, priority 2021, published 2023)

Test: Reactivity of FOdA with selenocystine, cystine and glutathione in the presence of TCEP (fluorescence)
Settings: buffers at pH 6 and 6.5, FOdA 10 μM, TCEP 200 μM, 37° C. 30 minutes, FIG. 1

C=CC(=O)Oc1ccc2c(c1)Oc1cc(OC(=O)C=C)ccc1C21OC(=O)c2ccccc21 [FOdA, Fluorescein O,O′-diacrylate]
reaction with cystine or glutathione (10 μM cystine or 20 μM glutathione): hardly reacted | reaction with selenocystine to emit fluorescence (10 μM selenocystine): selectively reacted with selenocystine to emit fluorescence
